Patent EP4212151B1, “STILBENE, FLAVONOL OR CURCUMIN COMPOUNDS FOR USE IN THE TREATMENT OF AGE-RELATED MACULAR DEGENERATION (AMD; ARMD)” (Knepper, Paul A., priority 2022, dated 2023)
Values joined by “and” are separate entries in the source; they are usually repeats but may differ in a detail not shown here. Identical values can stand only once. Like-named read-outs stand apart in the source and are kept apart here. At least one read-out could not be matched to a standard name with certainty.

Experiment: Bioavailability calculations: milligram dose and corresponding plasma concentration
Assay type: in vivo

Oc1ccc(/C=C/c2cc(O)cc(O)c2)cc1 [Resveratrol, 5-[(1E)2-(4-hydroxyphenyl)ethenyl]-1,3-benzenediol]
concentration (dose 2 mg, read-out: Corresponding Plasma Concentration): 10 nM
concentration (dose 20 mg, read-out: Corresponding Plasma Concentration): 100 nM
concentration (dose 200 mg, listed as R, read-out: Corresponding Plasma Concentration): 1000 nM and ~1000 nM
concentration (dose 200 mg, read-out: Corresponding Plasma Concentration): 1000 nM
concentration (dose 2,000 mg, read-out: Corresponding Plasma Concentration): 10000 nM
concentration (dose 5,000 mg, read-out: Corresponding Plasma Concentration): 25000 nM
concentration (over the range of effective daily doses: R 20 - 5,000, Q 24 - 5,000, C 20 - 12,000 mg/day, read-out: Plasma concentration): 100 to 25000 nM
